Measured values as given in PubChem BioAssay AID1487 (National Center for Advancing Translational Sciences (NCATS), 2009).
Some of the results follow. Shown are side measurements of this screen, not its main read-out; they come without a call. The list favours compounds with an active or inconclusive main result. Potencies come from curve fits of mixed quality, noted in brackets.

Experiment: qHTS Assay for Modulators of Lamin A Splicing
Settings: HeLa LMNA splicing GFP/RFP minigene ratio, 48 h
Outline: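 S3 HeLa cells stably expressing lamin A-EGFP splicing minigene plus DsRed2, 600 cells/well, 48 h compound exposure at 37C. Laser-scanning cytometry; analysed as GFP (500-530 nm)/RFP (575-640 nm) total intensity ratio; 0.5% DMSO vehicle.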

[1] = measured here: RFP viability control channel
[2] = measured here: GFP splicing reporter channel

Row | SMILES | AC50 [1] | AC50 [2]
1 | N#Cc1cc(C(=O)c2cc(Cl)ccc2O)cn(-c2ccccc2)c1=O | 10 µM [rising, partial curve] | –
2 | Cc1cc(SCC(=O)Nc2ncc(Cl)cc2Cl)nc2ccccc12 | 22.4 µM [rising, partial curve] | –
3 | Cc1cc(C(=O)CCl)c(C)n1CCc1ccccc1 | – | 5.62 µM [rising, single point]
4 | CC(=O)c1cccc(N2C(=O)CN(S(C)(=O)=O)CC2(C)C(=O)NC2CCCC2)c1 (stereo not given) | – | 39.8 µM [rising, partial curve, poor fit]
5 | Cc1ccc(C)c2[nH]c(=O)c(CN(CCN3CCCC3)C(=O)Nc3cccc(Cl)c3)cc12 | 14.1 µM [rising, single point] | –
6 | CCCCCCC(=O)N(O)C1CC(=O)N(c2ccc(C)cc2)C1=O (stereo not given) | 14.1 µM [rising, single point] | –
7 | CCCCCCc1cc2cc(S(=O)(=O)c3ccc(F)cc3)c(=O)oc2cc1O | 12.6 µM [rising, partial curve] | –
8 | CCN(CC)Cc1c[nH]c2c(C(=O)OC)cccc12 | 0.158 µM [falling, full curve, poor fit] | 0.0891 µM [falling, full curve, poor fit]
9 | Cc1cc2ncn(CC(O)COC3CCCCC3)c2cc1C (stereo not given) | 12.6 µM [rising, single point] | –
10 | COc1ccc(-c2nnn(CC(=O)N(CC(=O)NCCC(C)C)c3ccccc3)n2)cc1OC | – | 22.4 µM [rising, single point]
11 | Cc1ccc2c(c1)c(C)c(C)n2CC(O)Cn1nnc2ccccc21 (stereo not given) | 35.5 µM [rising, single point] | 22.4 µM [rising, single point]
12 | COc1cc(NC(=O)c2cc(Cl)nnc2Cl)cc(OC)c1OC | 15.8 µM [rising, single point] | –
13 | OCCN1CCN(CCC=C2c3ccccc3Sc3ccc(Cl)cc32)CC1 | 1.12 µM [falling, full curve] | 1.26 µM [falling, full curve]
14 | CCOC(=O)c1[nH]c(C)c(CCC(=O)Nc2cc(Cl)c(OC)cc2OC)c1C | 1.26 µM [rising, full curve] | 0.501 µM [rising, full curve]
15 | Cn1c(-c2ccccc2)c(C=O)c2ccccc21 | 39.8 µM [falling, partial curve, poor fit] | 28.2 µM [falling, partial curve, poor fit]
16 | Cc1ccc(S(=O)(=O)c2c(N)n(Cc3ccco3)c3nc4ccccc4nc23)cc1C | 3.98 µM [falling, single point] | 3.55 µM [falling, full curve, poor fit]
17 | C/C(=N\NC(=O)COc1ccc(C(C)(C)C)cc1)c1ccccc1 | 22.4 µM [rising, single point] | –

Given tab-delimited: part of the list above.
Row	SMILES	AC50 [1]	AC50 [2]
7	CCCCCCc1cc2cc(S(=O)(=O)c3ccc(F)cc3)c(=O)oc2cc1O	12.6 µM [rising, partial curve]	–
10	COc1ccc(-c2nnn(CC(=O)N(CC(=O)NCCC(C)C)c3ccccc3)n2)cc1OC	–	22.4 µM [rising, single point]
11	Cc1ccc2c(c1)c(C)c(C)n2CC(O)Cn1nnc2ccccc21 (stereo not given)	35.5 µM [rising, single point]	22.4 µM [rising, single point]
12	COc1cc(NC(=O)c2cc(Cl)nnc2Cl)cc(OC)c1OC	15.8 µM [rising, single point]	–
16	Cc1ccc(S(=O)(=O)c2c(N)n(Cc3ccco3)c3nc4ccccc4nc23)cc1C	3.98 µM [falling, single point]	3.55 µM [falling, full curve, poor fit]
17	C/C(=N\NC(=O)COc1ccc(C(C)(C)C)cc1)c1ccccc1	22.4 µM [rising, single point]	–

Remaining list, next part:

Row | SMILES | AC50 [1] | AC50 [2]
18 | CCCCC(=O)OCC(=O)[C@]1(O)Cc2c(O)c3c(c(O)c2[C@H](OC2CC(NC(=O)C(F)(F)F)C(O)C(C)O2)C1)C(=O)c1c(OC)cccc1C3=O (stereo not given in full) | 0.316 µM [rising, full curve] | 0.2 µM [rising, full curve, poor fit]
19 | O=C(Nc1ccc(Br)cc1)c1ccc(N2C(=O)C3CC=CCC3C2=O)cc1 (stereo not given) | – | 5.62 µM [rising, partial curve]
20 | COc1ccc(/C=C/C(=O)c2cc3cccc(OC)c3oc2=O)cc1 | 22.4 µM [falling, single point] | 35.5 µM [falling, single point]
21 | CN1CCN2c3ccccc3Cc3ccccc3C2C1 (stereo not given) | 0.158 µM [falling, full curve, poor fit] | –
22 | COCCn1c(SCc2ccc(C(=O)OC)o2)nc2cc(Cl)ccc2c1=O | 11.2 µM [rising, single point] | 11.2 µM [rising, single point]
23 | CCC(=O)c1ccc(OCC(O)CN2CCN(C(c3ccccc3)c3ccccc3)CC2)cc1 (stereo not given) | 35.5 µM [falling, single point] | 35.5 µM [falling, single point]
24 | COc1ccc(-c2cn3nc(SCC(=O)Nc4cc(C)cc(C)c4)ccc3n2)cc1 | 22.4 µM [falling, partial curve, poor fit] | 7.08 µM [falling, partial curve]
25 | c1ccc(CNc2nc(NCc3ccco3)nc(N3CCOCC3)n2)cc1 | 15.8 µM [falling, single point] | –
26 | [N-]=[N+]=Nc1nc2c(N)ncnc2n1C1OC(CO)C(O)C1O (stereo not given) | 12.6 µM [falling, partial curve] | 0.501 µM [falling, full curve, poor fit]
27 | C=CCNC(=O)c1onc(CSc2cccc3ccccc23)c1C(=O)O | – | 7.94 µM [falling, single point]
28 | Cc1ccc(C2=NN(C(=O)CCl)C(c3cccs3)C2)o1 (stereo not given) | 2.51 µM [rising, partial curve, poor fit] | 22.4 µM [falling, single point]
29 | O=c1c2ccccc2[nH]c2ccccc12 | 31.6 µM [rising, single point] | 31.6 µM [rising, single point]
30 | CCc1nc(Nc2ccc(OC)c(OC)c2)c2nnn(Cc3ccccc3Cl)c2n1 | 2.82 µM [rising, partial curve] | –
31 | COC(=O)c1ccc(CSc2cc(C)c3cccc(C)c3n2)o1 | 15.8 µM [falling, partial curve] | 0.1 µM [falling, full curve]
32 | O=c1c(N2CCN(c3cccc(Cl)c3)CC2)csc2ccc(Cl)cc12 | 17.8 µM [falling, single point] | 35.5 µM [falling, single point]
33 | Cc1cc([N+](=O)[O-])nn1Cc1ccc(C(=O)N/N=C/c2ccc(O)cc2O)cc1 | 14.1 µM [rising, single point] | –
34 | Cc1nc(NC(=S)NC(=O)COc2ccccc2Cl)ccc1Br | – | 11.2 µM [falling, partial curve, poor fit]
